# Laboratory results as given in PMC7819943, “Rice protein-binding microarrays: a tool to detect cis-acting elements near promoter regions in rice”.
# This is one part of the list.
# Biological target: T1, OsSMF1 (Oryza sativa, UniProt Q6ZLB0 1-436)
# T1 sequence: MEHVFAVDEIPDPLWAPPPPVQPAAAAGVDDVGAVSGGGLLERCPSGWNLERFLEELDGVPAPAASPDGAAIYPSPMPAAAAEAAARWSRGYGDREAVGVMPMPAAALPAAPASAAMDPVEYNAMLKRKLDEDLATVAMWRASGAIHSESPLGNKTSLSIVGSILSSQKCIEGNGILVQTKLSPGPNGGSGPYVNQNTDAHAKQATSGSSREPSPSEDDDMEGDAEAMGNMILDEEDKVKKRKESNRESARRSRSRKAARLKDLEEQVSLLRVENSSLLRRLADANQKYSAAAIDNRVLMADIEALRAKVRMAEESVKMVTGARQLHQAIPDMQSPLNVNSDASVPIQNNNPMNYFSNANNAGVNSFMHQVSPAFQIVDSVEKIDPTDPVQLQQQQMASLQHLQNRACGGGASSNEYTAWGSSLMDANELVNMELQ
# Assay: protein-binding microarray (RPBM); PBS, 2% BSA, 51.3 ng/ul salmon testes DNA, 50 uM zinc acetate, 200 nM TF, 25 C, 1 h; high values mean tight binding
# Conditions: protein: recombinant; tags: N-terminal polyhistidine and DsRed monomer fusion (pET32a); chain copies: 2; label: CyDye5-dUTP incorporated in the synthesized complementary strand; 3' TTTTT single-stranded linker to array surface; dsDNA, one strand shown
# Method in brief: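 Polyhistidine-tagged DsRed fusions of transcription factors, joined at the N-terminus, were expressed in E. coli BL21-CodonPlus and isolated on Ni–NTA. They were incubated at 200 nM for 1 h at 25 °C on a custom Agilent array, double-stranded and BSA-blocked, in PBS with 2% BSA, salmon testes DNA and 50 µM zinc acetate. The binding signal is per-feature fluorescence intensity (arbitrary units) read on an Axon 4000B scanner after washing.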
row,Sequence,binding signal
1,GTTCGGTTTCGCGGTCAAGCGCGTGACGTGAGGTCGCCCACGGAGTCACCTAGTGCAG,5720 fluorescence intensity (a.u.)
2,AACGGACGGTACAGATCTCTTTGGCTGACGCGCCCGGATCCGGAGTCACCTAGTGCAG,35300 fluorescence intensity (a.u.)
3,CTCCACCACGCGCGCCGCATCCATCTCCGCCAAAATCCACCGGAGTCACCTAGTGCAG,3160 fluorescence intensity (a.u.)
4,TGGGCCGAATAGGTACGCACGTGGGGAGGGGCGCGCAGGGCGGAGTCACCTAGTGCAG,3850 fluorescence intensity (a.u.)
5,CCTGCTCTTATTTCTCTTCCAGCTCATCACTTCTTCTTGCCGGAGTCACCTAGTGCAG,11300 fluorescence intensity (a.u.)
6,TCAAACGCTTATGTTCATGCTGCAATCCTCTGTGGCCTTGCGGAGTCACCTAGTGCAG,3350 fluorescence intensity (a.u.)
7,TGGGATGATCAAATGACTGCCACACTGTCATGTTCCTCTGCGGAGTCACCTAGTGCAG,3610 fluorescence intensity (a.u.)
8,ACGAGTGGACCTTTTGCAATCCACGTATATGGAATCCCATCGGAGTCACCTAGTGCAG,7360 fluorescence intensity (a.u.)
9,ACGCAAACGCAACGCAGCCGCGCGGGCGCCACCGGGTAGCCGGAGTCACCTAGTGCAG,24500 fluorescence intensity (a.u.)
10,TTATCAATCTACATCGTTATAATTTAGTTCCACCGTAATTCGGAGTCACCTAGTGCAG,4550 fluorescence intensity (a.u.)
11,TTCGACTGATCACTAACCATAAAATGCCTCCTCATGAAGCCGGAGTCACCTAGTGCAG,3320 fluorescence intensity (a.u.)
12,AGCTGACGAAAGCACAGCTTGGTCGGTCCACGCTGGATACCGGAGTCACCTAGTGCAG,4630 fluorescence intensity (a.u.)
13,GAACAAACCTTGAAGGTCTGAAGAAAATACCCTGTTCATACGGAGTCACCTAGTGCAG,18800 fluorescence intensity (a.u.)
14,ACTCCACTTTAGGCTGGCAGAGTAAATTGATTTAGGCATTCGGAGTCACCTAGTGCAG,27000 fluorescence intensity (a.u.)
15,CGCCAAGTGGCCTCCTCCTCCTCCAACCCATCCAATCCCCCGGAGTCACCTAGTGCAG,3620 fluorescence intensity (a.u.)
16,CCCTCTTGTGGTCTCTGAGACTGAGTCACTTGCAATATCTCGGAGTCACCTAGTGCAG,4660 fluorescence intensity (a.u.)
17,CACTAGCGGCCGCGCCGCGCGCCCACCGCCACCGCATACCCGGAGTCACCTAGTGCAG,3900 fluorescence intensity (a.u.)
18,TTGAGTCGGTAGAAGTAATTTGCAACATCTCGGTTGCAAACGGAGTCACCTAGTGCAG,4010 fluorescence intensity (a.u.)
19,CGTCCCATCACTAATCTGATAAATCTTGCAGAGATTAACGCGGAGTCACCTAGTGCAG,22000 fluorescence intensity (a.u.)
20,TGTAGGAAGATATTCCTTTAGTCCTGCCACGCAACCACAACGGAGTCACCTAGTGCAG,6570 fluorescence intensity (a.u.)
21,ATGTAGTTTGATCACGTCGGACACACGCTTCAGTGAATTCCGGAGTCACCTAGTGCAG,4060 fluorescence intensity (a.u.)

row,Sequence,binding signal
1,GTTCGCAGAATTCCCAATACAACCACACATCTACAAGGGCCGGAGTCACCTAGTGCAG,3180 fluorescence intensity (a.u.)
2,ATTCTTCCCCATTTCCTTTGGAGTCATGCAAGAATTTCACCGGAGTCACCTAGTGCAG,3670 fluorescence intensity (a.u.)
3,GTCCTTGAGCGCCTCGACGGAGGTCTGCAGCCTAGAAATGCGGAGTCACCTAGTGCAG,3180 fluorescence intensity (a.u.)
4,GAGTGCCCTGGGGTGGTGACGTGGAATACAATGCTATCTACGGAGTCACCTAGTGCAG,10300 fluorescence intensity (a.u.)
5,ACCTGGACACGTCGACACGATCACATGGTCCATCATCCTGCGGAGTCACCTAGTGCAG,14000 fluorescence intensity (a.u.)
6,GTAGGGTCCACGTGGGGCCCTACACTGACTCAGCCACCACCGGAGTCACCTAGTGCAG,16400 fluorescence intensity (a.u.)
7,CCATCCAGTTTAACTAGCATGTACAAAATTACGTGGAGAACGGAGTCACCTAGTGCAG,6760 fluorescence intensity (a.u.)
8,AACGGGGAGAGCCCAGCTGACGTGGCGTCATACAGCCACTCGGAGTCACCTAGTGCAG,17800 fluorescence intensity (a.u.)
9,GAGTTACCACGAGATGACACGTAGGATAAAGAGCTTTGAACGGAGTCACCTAGTGCAG,8600 fluorescence intensity (a.u.)
10,ATTCGACGAGATTTTCTGGTGACTTGGCTTCACGTGCTCCCGGAGTCACCTAGTGCAG,6960 fluorescence intensity (a.u.)
11,ACGGATTCCTGTTAATAGAGTGTTTCCGTAATATGTGGCACGGAGTCACCTAGTGCAG,3820 fluorescence intensity (a.u.)
12,CAACAAGGCATTTAGCACCGAAGTCCTACGTGCCAACGTGCGGAGTCACCTAGTGCAG,4150 fluorescence intensity (a.u.)
13,CCTCCACGAGTCAAACCCAGCCACCATCGGAATTCGAGGGCGGAGTCACCTAGTGCAG,28600 fluorescence intensity (a.u.)
14,CTAGCTATTGCTACAGCACATCTTCGATATCATGACCTAACGGAGTCACCTAGTGCAG,32300 fluorescence intensity (a.u.)
15,TCCTTTCCAAGTTCTATTTGGACTGAGACTGTTACGTGGGCGGAGTCACCTAGTGCAG,3730 fluorescence intensity (a.u.)
16,ATTTCTGAGCGTGACACCGATGACATCACTAAAAGAAACTCGGAGTCACCTAGTGCAG,5480 fluorescence intensity (a.u.)
17,GACCCACCTGGAAGCCTCTCTGAGTCACTTCTTCTCTGTCCGGAGTCACCTAGTGCAG,8360 fluorescence intensity (a.u.)
18,TCCACGTAGACTCCACCTATCAGGATGCTACGTCATCTCTCGGAGTCACCTAGTGCAG,20200 fluorescence intensity (a.u.)
19,AAACATCACATGCGACACCTTATATAATACCCGATATGACCGGAGTCACCTAGTGCAG,3620 fluorescence intensity (a.u.)
20,TGAGAGTAGTCACCATCTCAATTAGACCTTTTGGTGCTAGCGGAGTCACCTAGTGCAG,3710 fluorescence intensity (a.u.)
21,ATGCCTCACCGGTGACGGCATCCCGTATAACCCGTCAAAGCGGAGTCACCTAGTGCAG,3820 fluorescence intensity (a.u.)

# Quoted from the listing.
# Entry for ATGCCTCACCGGTGACGGCATCCCGTATAACCCGTCAAAGCGGAGTCACCTAGTGCAG under binding signal: 3820 fluorescence intensity (a.u.)
# Entry for ACCTGGACACGTCGACACGATCACATGGTCCATCATCCTGCGGAGTCACCTAGTGCAG under binding signal: 14000 fluorescence intensity (a.u.)
